Source: PubChem BioAssay AID1259254 (NCATS, 2017)
Here is a random part of about 59,000 reagents tested. About 1,550 of them (2.6%) were called active. 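G2 share is only a proxy for re-replication; each gene was hit by three separate siRNAs, and active genes were retested.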 The numbers tell different reagents against one gene apart. Not all columns of the deposit are shown. Not stated in the record: the amount of reagent.

- Test: 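Finding genes that stop cells copying their DNA twice in one cycle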 (primary screen)
- Cells: human HCT116 colorectal cancer cells
- Knock-down reagent: single siRNA against human genes
- Time to read-out: 3 days
- Read-out: 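Imaged Hoechst DNA stain sorts each cell into a cycle phase by DNA amount; per plate, G2 fraction set to 0% for non-targeting and 100% for GMNN siRNA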
- Reading the numbers: G2 robust z-score and G2 cells, % of GMNN control: higher = more G2 cells, more excess DNA replication
- Hit rule: 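Active siRNAs have a G2 robust z of 5 or more median absolute deviations over the median, which in these data means about 38% or higher of GMNN control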

gene | reagent no. | G2 robust z-score | G2 cells, % of GMNN control | Outcome
TNNT1 | 1 | 0.633 | 7.42 | inactive
TNNT1 | 2 | -0.339 | 0.585 | inactive
TNNT1 | 3 | -0.528 | -0.749 | inactive
SPRED1 | 1 | -0.316 | 0.743 | inactive
SPRED1 | 2 | -0.806 | -2.7 | inactive
SPRED1 | 3 | -0.997 | -4.05 | inactive
TERT | 1 | 2.38 | 19.7 | inactive
TERT | 2 | 0.51 | 6.55 | inactive
TERT | 3 | -0.265 | 1.1 | inactive
BLVRA | 1 | -0.81 | -2.73 | inactive
BLVRA | 2 | -0.751 | -2.32 | inactive
BLVRA | 3 | -0.797 | -2.64 | inactive
RPS26P10 | 1 | 2.34 | 19.4 | inactive
RPS26P10 | 2 | 7.27 | 54.1 | active
RPS26P10 | 3 | -1.33 | -6.37 | inactive
VARS2 | 1 | -0.86 | -3.08 | inactive
VARS2 | 2 | 0.748 | 8.23 | inactive
VARS2 | 3 | -1.32 | -6.3 | inactive
MSANTD2 | 1 | 0.915 | 9.41 | inactive
MSANTD2 | 2 | 2.52 | 20.7 | inactive
MSANTD2 | 3 | -0.687 | -1.87 | inactive
GH1 | 1 | 8.57 | 63.3 | active
GH1 | 2 | 2.87 | 23.2 | inactive
GH1 | 3 | -0.803 | -2.68 | inactive
SLC2A11 | 1 | -0.5 | -0.552 | inactive
SLC2A11 | 2 | -0.679 | -1.81 | inactive
SLC2A11 | 3 | -0.344 | 0.547 | inactive
BANF1 | 1 | -0.266 | 1.1 | inactive
BANF1 | 2 | 1.68 | 14.8 | inactive
BANF1 | 3 | 0.297 | 5.06 | inactive
GADL1 | 1 | -0.832 | -2.89 | inactive
GADL1 | 2 | 1.51 | 13.6 | inactive
GADL1 | 3 | 1.83 | 15.9 | inactive
CEP85L | 1 | 0.0102 | 3.04 | inactive
CEP85L | 2 | -0.968 | -3.84 | inactive
CEP85L | 3 | 0.475 | 6.31 | inactive
GAB1 | 1 | 0.649 | 7.53 | inactive
GAB1 | 2 | -0.268 | 1.08 | inactive
GAB1 | 3 | 0.641 | 7.48 | inactive
PNLIPRP3 | 1 | -1.02 | -4.24 | inactive
PNLIPRP3 | 2 | 0.655 | 7.58 | inactive
PNLIPRP3 | 3 | 0.158 | 4.08 | inactive
SYNGR4 | 1 | 4.63 | 35.6 | inactive
SYNGR4 | 2 | -0.392 | 0.208 | inactive
SYNGR4 | 3 | 1.2 | 11.4 | inactive
ALKBH6 | 1 | -0.312 | 0.774 | inactive
ALKBH6 | 2 | 1.57 | 14 | inactive
ALKBH6 | 3 | 0.0763 | 3.5 | inactive
PMEL | 1 | 0.787 | 8.5 | inactive
PMEL | 2 | -0.572 | -1.06 | inactive
PMEL | 3 | 2.93 | 23.6 | inactive
CHUK | 1 | 0.389 | 5.7 | inactive
CHUK | 2 | -0.548 | -0.89 | inactive
CHUK | 3 | 0.223 | 4.54 | inactive
CSTF3 | 1 | -0.668 | -1.73 | inactive
CSTF3 | 2 | -1.17 | -5.28 | inactive
CSTF3 | 3 | 1.06 | 10.4 | inactive
NAA25 | 1 | -1.58 | -8.13 | inactive
NAA25 | 2 | -0.412 | 0.0706 | inactive
NAA25 | 3 | -0.33 | 0.648 | inactive
UNC5B | 1 | 1.33 | 12.3 | inactive
UNC5B | 2 | 1.26 | 11.8 | inactive
UNC5B | 3 | 1.28 | 12 | inactive
LGR6 | 1 | 4.16 | 32.2 | inactive
LGR6 | 2 | 1.67 | 14.7 | inactive
LGR6 | 3 | -0.928 | -3.56 | inactive
FUZ | 1 | -0.765 | -2.41 | inactive
FUZ | 2 | -0.22 | 1.42 | inactive
FUZ | 3 | -0.463 | -0.288 | inactive

Targets above whose target name starts with L or l:
gene | reagent no. | G2 robust z-score | G2 cells, % of GMNN control | Outcome
LGR6 | 1 | 4.16 | 32.2 | inactive
LGR6 | 2 | 1.67 | 14.7 | inactive
LGR6 | 3 | -0.928 | -3.56 | inactive
